# Measurements as given in the supplement of paper PMC11006884.
# By UniProt entry, the sequences of proteins in these tests, tags left out. Where a name states a change or a piece, a line headed by the entry shows the natural chain unless it says otherwise.
# UniProt O95714: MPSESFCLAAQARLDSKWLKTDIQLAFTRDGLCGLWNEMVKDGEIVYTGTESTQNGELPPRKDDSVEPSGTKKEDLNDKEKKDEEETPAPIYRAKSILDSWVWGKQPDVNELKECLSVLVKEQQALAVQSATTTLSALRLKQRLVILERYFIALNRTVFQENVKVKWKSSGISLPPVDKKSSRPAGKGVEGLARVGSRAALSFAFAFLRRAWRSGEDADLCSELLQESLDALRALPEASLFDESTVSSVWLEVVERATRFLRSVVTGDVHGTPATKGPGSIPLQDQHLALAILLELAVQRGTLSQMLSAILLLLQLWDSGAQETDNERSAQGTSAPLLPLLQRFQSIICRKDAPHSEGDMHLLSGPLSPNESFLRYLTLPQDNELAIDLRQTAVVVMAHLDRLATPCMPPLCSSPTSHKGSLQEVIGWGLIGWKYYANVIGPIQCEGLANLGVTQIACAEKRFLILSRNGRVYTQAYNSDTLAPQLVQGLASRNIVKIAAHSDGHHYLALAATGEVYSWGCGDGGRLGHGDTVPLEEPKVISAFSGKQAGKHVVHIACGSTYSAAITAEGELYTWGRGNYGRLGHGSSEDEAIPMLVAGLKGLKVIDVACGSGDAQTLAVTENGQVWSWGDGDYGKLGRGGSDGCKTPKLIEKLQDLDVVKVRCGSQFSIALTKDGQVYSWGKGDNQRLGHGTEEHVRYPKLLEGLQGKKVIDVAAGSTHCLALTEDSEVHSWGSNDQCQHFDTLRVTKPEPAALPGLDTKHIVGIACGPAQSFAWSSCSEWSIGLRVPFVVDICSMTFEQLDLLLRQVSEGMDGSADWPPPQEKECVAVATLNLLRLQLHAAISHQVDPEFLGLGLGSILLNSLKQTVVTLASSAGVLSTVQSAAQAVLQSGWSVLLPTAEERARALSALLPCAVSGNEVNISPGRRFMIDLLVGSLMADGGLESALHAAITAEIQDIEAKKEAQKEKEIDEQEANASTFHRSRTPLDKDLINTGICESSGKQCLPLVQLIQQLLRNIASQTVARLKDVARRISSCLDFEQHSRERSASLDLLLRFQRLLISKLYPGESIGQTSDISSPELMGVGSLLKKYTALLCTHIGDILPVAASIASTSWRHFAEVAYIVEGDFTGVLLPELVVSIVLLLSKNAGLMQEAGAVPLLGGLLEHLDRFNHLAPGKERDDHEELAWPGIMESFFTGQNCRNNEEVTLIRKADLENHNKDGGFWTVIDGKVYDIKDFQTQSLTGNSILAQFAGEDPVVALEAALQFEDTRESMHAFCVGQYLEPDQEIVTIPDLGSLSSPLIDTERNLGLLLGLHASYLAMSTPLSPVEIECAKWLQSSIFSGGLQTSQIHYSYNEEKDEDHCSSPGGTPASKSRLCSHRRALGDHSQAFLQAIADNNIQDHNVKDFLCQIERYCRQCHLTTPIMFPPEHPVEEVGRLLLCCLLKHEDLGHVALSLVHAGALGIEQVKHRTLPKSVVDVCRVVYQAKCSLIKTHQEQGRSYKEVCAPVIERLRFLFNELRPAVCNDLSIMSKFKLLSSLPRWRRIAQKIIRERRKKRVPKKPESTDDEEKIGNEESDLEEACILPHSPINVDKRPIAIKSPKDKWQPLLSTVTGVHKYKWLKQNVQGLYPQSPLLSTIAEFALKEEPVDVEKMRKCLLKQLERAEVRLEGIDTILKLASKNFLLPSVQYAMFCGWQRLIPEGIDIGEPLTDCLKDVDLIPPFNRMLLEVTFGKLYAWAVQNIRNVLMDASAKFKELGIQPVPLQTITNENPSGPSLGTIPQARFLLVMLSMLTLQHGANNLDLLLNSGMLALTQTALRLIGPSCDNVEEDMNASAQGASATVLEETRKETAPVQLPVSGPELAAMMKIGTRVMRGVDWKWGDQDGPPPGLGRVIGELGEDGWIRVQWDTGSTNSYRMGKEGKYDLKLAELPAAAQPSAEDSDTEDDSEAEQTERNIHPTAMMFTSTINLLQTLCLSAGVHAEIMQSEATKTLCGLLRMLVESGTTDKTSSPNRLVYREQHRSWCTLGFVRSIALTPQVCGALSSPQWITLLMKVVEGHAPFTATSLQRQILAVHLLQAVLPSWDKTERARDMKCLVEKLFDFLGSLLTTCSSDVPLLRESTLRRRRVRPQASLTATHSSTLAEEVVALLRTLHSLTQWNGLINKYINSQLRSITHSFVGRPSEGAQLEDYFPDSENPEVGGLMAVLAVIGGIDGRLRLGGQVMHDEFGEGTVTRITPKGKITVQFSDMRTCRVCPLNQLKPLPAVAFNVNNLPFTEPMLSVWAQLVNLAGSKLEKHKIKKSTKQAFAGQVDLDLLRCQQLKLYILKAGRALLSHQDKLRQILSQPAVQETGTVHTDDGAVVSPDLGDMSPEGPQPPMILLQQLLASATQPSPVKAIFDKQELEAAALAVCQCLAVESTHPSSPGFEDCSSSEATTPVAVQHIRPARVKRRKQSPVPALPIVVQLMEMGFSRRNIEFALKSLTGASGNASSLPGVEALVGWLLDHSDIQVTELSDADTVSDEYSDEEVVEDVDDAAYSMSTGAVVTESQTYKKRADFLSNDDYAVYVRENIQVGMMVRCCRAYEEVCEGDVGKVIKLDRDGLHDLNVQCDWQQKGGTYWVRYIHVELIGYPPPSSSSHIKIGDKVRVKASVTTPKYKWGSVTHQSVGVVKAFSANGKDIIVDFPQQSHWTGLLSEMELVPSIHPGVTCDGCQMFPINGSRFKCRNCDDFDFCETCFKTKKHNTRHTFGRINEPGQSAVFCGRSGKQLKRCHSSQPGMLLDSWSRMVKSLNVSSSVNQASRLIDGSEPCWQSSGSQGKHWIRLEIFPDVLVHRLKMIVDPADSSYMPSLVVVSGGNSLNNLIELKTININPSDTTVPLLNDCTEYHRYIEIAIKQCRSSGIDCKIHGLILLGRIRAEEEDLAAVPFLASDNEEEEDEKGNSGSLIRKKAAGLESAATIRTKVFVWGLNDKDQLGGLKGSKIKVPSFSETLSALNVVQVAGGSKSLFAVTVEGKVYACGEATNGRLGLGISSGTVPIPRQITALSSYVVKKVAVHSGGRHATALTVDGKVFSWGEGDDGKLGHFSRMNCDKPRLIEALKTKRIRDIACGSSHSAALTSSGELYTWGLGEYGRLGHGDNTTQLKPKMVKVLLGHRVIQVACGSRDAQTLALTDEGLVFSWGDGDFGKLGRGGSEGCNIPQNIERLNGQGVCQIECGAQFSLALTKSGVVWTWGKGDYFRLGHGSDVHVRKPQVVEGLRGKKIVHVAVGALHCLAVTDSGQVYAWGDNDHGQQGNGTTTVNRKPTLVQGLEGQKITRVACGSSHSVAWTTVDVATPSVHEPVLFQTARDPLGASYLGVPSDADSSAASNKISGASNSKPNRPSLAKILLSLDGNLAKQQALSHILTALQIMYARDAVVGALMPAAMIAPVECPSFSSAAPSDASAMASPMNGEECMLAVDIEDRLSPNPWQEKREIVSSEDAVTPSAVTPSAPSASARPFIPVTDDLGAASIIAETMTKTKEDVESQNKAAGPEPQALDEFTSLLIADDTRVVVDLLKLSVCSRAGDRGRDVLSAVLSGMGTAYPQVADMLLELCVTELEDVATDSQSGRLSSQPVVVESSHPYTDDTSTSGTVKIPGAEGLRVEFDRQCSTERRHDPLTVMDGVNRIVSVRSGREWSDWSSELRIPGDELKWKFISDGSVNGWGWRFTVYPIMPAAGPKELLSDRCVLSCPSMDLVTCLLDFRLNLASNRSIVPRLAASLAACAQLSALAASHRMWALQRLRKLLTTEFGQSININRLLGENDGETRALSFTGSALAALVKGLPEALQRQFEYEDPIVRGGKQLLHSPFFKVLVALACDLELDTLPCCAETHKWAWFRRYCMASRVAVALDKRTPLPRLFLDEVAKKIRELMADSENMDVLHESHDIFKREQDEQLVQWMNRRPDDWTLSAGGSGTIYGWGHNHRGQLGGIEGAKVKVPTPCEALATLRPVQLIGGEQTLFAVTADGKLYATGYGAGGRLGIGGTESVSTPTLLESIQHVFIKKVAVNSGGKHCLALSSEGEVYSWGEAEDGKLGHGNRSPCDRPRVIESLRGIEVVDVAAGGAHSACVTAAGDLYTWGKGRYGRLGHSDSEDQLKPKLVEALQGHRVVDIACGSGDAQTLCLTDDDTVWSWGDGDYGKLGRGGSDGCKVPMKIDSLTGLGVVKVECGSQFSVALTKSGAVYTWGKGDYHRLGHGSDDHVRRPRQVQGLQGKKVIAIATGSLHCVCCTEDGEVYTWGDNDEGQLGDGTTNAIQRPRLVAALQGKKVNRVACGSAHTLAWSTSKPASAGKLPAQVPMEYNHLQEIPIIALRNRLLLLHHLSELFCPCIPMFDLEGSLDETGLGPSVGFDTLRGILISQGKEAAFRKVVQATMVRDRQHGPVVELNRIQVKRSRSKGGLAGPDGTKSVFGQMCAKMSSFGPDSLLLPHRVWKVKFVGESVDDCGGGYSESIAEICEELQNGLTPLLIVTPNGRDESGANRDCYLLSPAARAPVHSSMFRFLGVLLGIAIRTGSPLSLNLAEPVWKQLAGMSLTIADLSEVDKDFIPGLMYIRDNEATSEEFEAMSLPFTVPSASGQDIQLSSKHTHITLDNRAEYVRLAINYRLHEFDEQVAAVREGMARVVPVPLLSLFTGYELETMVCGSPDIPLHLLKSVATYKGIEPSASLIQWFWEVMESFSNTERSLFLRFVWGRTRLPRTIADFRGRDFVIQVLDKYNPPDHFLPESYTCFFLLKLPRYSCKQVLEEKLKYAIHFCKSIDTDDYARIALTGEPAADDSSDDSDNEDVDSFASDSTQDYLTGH
# UniProt P04183: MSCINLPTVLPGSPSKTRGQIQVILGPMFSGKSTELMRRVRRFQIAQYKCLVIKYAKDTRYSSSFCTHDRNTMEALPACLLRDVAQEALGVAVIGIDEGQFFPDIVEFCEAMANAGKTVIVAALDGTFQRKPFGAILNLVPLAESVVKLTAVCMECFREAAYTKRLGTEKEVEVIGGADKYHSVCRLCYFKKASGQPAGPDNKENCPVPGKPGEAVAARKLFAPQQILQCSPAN
# UniProt P07737, whole entry, looked up: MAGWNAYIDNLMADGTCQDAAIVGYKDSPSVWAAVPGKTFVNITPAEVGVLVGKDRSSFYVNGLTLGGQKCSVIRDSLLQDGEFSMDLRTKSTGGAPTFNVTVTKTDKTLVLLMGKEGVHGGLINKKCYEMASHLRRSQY
# UniProt O95239: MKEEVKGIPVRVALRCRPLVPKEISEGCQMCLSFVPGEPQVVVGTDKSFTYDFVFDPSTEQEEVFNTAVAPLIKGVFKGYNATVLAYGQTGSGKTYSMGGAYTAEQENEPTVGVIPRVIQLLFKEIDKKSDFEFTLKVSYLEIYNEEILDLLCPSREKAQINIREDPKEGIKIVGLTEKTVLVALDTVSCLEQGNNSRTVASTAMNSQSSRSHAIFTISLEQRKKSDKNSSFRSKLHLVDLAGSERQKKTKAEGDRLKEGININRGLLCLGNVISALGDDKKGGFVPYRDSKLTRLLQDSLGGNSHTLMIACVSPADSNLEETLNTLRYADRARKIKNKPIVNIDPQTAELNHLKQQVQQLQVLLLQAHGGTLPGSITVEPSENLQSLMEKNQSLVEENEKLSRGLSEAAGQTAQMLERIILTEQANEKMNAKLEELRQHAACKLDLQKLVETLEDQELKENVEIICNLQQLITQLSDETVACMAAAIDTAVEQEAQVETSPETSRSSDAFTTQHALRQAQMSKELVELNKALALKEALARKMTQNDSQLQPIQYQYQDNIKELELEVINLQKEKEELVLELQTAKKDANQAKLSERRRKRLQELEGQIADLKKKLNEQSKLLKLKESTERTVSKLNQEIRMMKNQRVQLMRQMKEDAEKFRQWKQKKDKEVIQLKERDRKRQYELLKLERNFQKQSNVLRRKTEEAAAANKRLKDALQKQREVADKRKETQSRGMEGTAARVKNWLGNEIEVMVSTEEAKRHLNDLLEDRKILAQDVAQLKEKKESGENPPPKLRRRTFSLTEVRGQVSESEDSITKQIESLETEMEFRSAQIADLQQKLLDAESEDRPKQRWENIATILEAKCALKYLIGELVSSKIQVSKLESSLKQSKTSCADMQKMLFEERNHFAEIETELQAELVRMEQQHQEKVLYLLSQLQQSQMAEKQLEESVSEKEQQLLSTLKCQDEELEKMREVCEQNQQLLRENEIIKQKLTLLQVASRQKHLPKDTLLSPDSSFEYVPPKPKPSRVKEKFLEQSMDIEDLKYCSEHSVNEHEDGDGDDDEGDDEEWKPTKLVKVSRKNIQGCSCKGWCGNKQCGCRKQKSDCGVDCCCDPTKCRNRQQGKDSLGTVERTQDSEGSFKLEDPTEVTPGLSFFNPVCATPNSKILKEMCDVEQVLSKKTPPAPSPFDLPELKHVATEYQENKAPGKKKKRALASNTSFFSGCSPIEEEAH
# This is a selection; strong and weak results do not stand in their true shares.
# Compound: COC(=O)C#Cc1ccccc1 [methyl 3-phenylpropiolate]
# Assay: log2 ratio of iodoacetamide-alkyne labeling of the cysteine site, DMSO over compound (competition); higher = stronger covalent engagement of the cysteine by the compound, active = 1 or more
# Details: 500 µM; treatment time 1 h; system: HEK293T cell lysate
# Outline: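 For each cysteine, the log2 competition ratio is mean control-channel reporter intensity over mean compound-channel reporter intensity. HEK293T lysate (2 mg/mL) was exposed to vehicle or electrophile (500 µM, 1 h, ambient temperature), labelled with iodoacetamide alkyne (1 h), clicked to sCIP-TMT reagents, digested overnight with trypsin at 37 °C, streptavidin-enriched and analysed by Orbitrap Eclipse LC-MS/MS with FAIMS and FragPipe. Cysteines quantified in only one of three replicates, each with duplicate channels, were excluded.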
row,Target,log2 ratio of iodoacetamide-alkyne labeling
1,UniProt P07437_C201,inactive: 0.243
2,UniProt O94763_C448,inactive: 0.659
3,ENO1 C339 (UniProt P06733),inactive: -0.315
4,LDHB C294 (UniProt P07195),inactive: -0.0731
5,HPRT1 C206 (UniProt P00492),inactive: 0.0837
6,UniProt O95071_C739,inactive: 0.0375
7,HERC2 C2770 (UniProt O95714),inactive: 0.612
8,UniProt O96028_C1102,inactive: 0.21
9,TK1 C206 (UniProt P04183),inactive: 0.42
10,PFN1 C17 (UniProt P07737),inactive: -0.417
11,PRPF6 C739 (UniProt O94906),inactive: 0.57
12,KIF4A C312 (UniProt O95239),inactive: 0.191
13,PCF11 C1534 (UniProt O94913),inactive: 0.259
14,UniProt O95696_C937,inactive: 0.102
15,GNAI2 C112 (UniProt P04899),inactive: 0.0543

# Numbers 3–4 of the list above:
row,Target,log2 ratio of iodoacetamide-alkyne labeling
3,ENO1 C339 (UniProt P06733),inactive: -0.315
4,LDHB C294 (UniProt P07195),inactive: -0.0731
